Laboratory results reported in PMC11791113.
No constants are given. Whether binding was seen depends on the method and setting. Binding calls can cover weak binding; strength is not graded here. For some assays here: Binding seen in cells or lysates may run through a third protein.

Amino acid sequences for entries named in this document (tags omitted). A change or cut given only in a name is not applied to a line headed by its entry.
UniProt A0QSW0: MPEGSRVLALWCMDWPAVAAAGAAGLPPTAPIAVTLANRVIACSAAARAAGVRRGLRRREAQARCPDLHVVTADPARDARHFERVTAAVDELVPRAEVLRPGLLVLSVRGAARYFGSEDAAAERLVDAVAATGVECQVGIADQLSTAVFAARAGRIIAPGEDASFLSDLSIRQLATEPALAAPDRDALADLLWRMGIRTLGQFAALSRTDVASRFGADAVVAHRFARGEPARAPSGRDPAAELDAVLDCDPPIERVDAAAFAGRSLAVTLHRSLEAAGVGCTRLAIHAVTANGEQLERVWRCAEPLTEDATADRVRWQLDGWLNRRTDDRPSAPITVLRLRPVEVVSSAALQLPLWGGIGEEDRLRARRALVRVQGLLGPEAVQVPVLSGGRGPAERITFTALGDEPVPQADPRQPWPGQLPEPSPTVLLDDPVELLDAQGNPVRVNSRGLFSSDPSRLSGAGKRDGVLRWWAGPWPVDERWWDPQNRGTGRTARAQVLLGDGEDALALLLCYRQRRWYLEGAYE
UniProt A0QSV9: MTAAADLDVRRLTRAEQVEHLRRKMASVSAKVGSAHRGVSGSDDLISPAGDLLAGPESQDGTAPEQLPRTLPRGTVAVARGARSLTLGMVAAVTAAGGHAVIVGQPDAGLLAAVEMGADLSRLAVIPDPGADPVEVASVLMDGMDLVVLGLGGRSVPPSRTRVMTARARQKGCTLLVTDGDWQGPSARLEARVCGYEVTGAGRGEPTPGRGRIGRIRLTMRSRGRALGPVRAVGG

How the values were obtained:
[1] = target: His-tagged ImuB (wildtype) (Mycobacterium smegmatis) (UniProt A0QSW0); test: pull-down; IMAC pull-down after coexpression of His-ImuB variants with Strep-VFP–ImuAʹ in E. coli: clarified extract incubated with nickel beads, eluted with 500 mM imidazole; amount of ImuB loaded normalised; SDS-PAGE imaged at 532 nm for VFP
[2] = target: His-tagged ImuB (wildtype) (Mycobacterium smegmatis) (UniProt A0QSW0); test: SEC; IMAC eluate of coexpressed His-ImuB variants and Strep-VFP–ImuAʹ injected on a Superdex 200 increase 2.4 ml column, 50 mM Tris pH 8.5, 300 mM NaCl, 1 mM DTT; the fraction at the elution volume of the complex (~1.6 ml) analysed by SDS-PAGE and VFP fluorescence; both purified

- binding [1]: binds
- binding [2]: binds
Substance: Strep-VFP-tagged ImuAʹ (from UniProt A0QSV9)
